# Results taken from article PMC5072318.
# Sequences of proteins named here, by UniProt entry; tags and fusion partners are left off.
# UniProt P10218: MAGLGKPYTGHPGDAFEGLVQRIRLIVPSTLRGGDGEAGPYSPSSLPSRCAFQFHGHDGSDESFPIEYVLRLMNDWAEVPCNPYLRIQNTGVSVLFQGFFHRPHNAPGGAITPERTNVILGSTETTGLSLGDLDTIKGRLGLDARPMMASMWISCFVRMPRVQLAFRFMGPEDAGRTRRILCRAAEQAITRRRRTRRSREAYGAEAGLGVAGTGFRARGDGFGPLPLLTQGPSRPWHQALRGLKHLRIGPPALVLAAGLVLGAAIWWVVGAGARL
# UniProt P10240: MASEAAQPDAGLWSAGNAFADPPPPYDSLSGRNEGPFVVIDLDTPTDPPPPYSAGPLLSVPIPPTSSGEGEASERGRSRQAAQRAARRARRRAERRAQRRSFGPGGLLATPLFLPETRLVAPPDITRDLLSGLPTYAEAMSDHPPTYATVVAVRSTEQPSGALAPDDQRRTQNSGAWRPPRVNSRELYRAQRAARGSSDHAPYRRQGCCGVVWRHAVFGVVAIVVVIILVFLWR
# UniProt O43681: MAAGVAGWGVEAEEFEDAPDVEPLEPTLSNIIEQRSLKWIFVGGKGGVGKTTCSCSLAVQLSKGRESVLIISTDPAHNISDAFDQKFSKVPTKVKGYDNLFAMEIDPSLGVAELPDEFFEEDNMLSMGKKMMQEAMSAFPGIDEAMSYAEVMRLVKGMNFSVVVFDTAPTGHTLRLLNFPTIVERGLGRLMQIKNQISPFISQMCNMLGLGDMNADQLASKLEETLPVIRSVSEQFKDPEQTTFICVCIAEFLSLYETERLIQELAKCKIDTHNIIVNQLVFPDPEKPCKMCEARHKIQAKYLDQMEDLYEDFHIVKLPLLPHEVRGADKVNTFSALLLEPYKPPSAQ
# Results are given in words; binding and its absence hold for the method and conditions named. Some entries that bind do so weakly or less than the wild type.
# Experiments:
# HSV1 pUL34 (HSV1) = HSV1 pUL34 (HSV1) (UniProt P10218); experiment: two-hybrid; Asna1 fused to the Gal4 activation domain (prey, pGADT7-AD) against viral proteins fused to the Gal4 DNA-binding domain (bait, pGBKT7-DBD); HIS3 reporter, growth of yeast on selective media
# HSV1 pUL56 (HSV1) = HSV1 pUL56 (HSV1) (UniProt P10240); experiment: as above
substance,measurement,setting,value
Asna1/TRC40 (from UniProt O43681 1-348),binding,HSV1 pUL34 (HSV1),binds
same,binding,HSV1 pUL56 (HSV1),binds
